Measured values as given in paper PMC9010760.
Results are given in words; binding and its absence hold for the method and conditions named. In cells and extracts the contact can be indirect. Some binding calls cover weakened binding; strength is not graded here.

Chains of the proteins cited; added tags and fusions are not shown. Lines headed by an entry give the natural chain unless they say otherwise; changes in a name come on top. A line that says so, or that is headed by a name, gives the form on record, which may keep a tag or linker.
UniProt Q9HBA0: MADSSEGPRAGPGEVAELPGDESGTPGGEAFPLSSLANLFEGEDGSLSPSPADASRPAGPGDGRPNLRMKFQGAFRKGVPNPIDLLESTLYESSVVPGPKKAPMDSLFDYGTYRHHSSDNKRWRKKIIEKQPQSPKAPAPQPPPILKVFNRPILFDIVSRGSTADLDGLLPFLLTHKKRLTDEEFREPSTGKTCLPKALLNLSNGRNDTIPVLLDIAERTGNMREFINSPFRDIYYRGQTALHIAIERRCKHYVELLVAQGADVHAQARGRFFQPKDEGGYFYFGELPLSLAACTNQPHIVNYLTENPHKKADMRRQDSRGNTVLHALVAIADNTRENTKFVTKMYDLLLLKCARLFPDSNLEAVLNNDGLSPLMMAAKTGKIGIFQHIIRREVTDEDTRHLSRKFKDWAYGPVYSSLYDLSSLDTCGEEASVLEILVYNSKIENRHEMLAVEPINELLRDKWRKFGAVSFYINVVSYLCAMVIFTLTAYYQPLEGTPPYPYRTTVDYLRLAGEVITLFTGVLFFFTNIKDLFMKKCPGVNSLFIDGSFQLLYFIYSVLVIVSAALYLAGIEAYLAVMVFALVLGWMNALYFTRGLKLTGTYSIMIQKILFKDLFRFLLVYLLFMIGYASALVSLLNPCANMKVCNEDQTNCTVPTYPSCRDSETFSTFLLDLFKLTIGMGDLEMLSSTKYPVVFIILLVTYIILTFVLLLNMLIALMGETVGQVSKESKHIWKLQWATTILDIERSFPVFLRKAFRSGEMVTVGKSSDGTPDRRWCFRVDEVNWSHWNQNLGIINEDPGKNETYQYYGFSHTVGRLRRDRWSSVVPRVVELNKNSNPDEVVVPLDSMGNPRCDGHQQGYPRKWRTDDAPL
TRPV4 5K-IDR mutant (Lys 77, 101, 130, 136 and 147 to arginine) (Q9HBA0, form named): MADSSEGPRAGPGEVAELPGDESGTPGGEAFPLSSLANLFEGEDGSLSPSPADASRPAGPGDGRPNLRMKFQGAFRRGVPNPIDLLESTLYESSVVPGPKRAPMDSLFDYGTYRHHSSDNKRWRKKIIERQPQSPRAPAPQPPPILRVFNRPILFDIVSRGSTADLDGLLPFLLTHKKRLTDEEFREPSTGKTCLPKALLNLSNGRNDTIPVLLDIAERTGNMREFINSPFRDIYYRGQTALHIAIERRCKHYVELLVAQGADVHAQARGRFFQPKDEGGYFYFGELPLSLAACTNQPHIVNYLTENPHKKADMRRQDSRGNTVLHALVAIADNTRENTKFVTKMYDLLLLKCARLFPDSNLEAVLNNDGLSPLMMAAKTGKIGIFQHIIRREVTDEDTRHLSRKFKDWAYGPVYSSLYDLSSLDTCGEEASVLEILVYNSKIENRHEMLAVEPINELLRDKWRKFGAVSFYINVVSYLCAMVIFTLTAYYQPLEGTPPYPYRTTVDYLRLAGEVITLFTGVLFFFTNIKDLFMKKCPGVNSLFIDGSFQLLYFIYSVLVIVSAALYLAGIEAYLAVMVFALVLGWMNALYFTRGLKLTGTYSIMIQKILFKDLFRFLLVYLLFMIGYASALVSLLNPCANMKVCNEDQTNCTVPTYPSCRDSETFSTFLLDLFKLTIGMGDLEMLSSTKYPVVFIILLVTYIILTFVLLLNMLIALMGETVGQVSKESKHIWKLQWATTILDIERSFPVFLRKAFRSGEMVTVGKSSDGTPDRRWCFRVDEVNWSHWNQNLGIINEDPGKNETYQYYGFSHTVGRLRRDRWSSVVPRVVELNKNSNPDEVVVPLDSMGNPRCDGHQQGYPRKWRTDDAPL
N-terminally Myc-tagged ITCH C830A (catalytically inactive) (Q96J02-2, form named): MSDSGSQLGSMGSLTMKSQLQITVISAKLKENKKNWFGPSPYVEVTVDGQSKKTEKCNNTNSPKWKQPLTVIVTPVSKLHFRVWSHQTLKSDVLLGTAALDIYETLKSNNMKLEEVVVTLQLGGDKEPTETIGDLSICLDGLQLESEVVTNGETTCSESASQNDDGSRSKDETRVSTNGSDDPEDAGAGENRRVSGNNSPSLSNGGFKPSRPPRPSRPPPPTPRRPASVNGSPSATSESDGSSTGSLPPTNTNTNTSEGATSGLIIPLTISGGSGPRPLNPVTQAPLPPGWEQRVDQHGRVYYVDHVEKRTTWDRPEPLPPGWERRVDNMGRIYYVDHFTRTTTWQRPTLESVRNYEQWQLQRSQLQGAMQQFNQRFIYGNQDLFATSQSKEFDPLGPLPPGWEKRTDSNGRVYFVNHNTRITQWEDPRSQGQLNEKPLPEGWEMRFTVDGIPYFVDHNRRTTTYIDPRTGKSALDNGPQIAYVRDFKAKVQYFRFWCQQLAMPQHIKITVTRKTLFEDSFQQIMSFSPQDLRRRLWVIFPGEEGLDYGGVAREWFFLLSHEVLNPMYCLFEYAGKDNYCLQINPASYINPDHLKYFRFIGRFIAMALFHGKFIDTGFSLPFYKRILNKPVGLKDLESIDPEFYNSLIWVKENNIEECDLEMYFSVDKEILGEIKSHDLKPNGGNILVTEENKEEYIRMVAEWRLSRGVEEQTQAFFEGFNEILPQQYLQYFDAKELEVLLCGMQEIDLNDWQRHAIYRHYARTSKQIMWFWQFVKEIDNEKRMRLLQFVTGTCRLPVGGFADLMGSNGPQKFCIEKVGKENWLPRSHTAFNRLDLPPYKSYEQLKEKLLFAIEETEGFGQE
N-terminally Myc-tagged ITCH (Q96J02-2, form named): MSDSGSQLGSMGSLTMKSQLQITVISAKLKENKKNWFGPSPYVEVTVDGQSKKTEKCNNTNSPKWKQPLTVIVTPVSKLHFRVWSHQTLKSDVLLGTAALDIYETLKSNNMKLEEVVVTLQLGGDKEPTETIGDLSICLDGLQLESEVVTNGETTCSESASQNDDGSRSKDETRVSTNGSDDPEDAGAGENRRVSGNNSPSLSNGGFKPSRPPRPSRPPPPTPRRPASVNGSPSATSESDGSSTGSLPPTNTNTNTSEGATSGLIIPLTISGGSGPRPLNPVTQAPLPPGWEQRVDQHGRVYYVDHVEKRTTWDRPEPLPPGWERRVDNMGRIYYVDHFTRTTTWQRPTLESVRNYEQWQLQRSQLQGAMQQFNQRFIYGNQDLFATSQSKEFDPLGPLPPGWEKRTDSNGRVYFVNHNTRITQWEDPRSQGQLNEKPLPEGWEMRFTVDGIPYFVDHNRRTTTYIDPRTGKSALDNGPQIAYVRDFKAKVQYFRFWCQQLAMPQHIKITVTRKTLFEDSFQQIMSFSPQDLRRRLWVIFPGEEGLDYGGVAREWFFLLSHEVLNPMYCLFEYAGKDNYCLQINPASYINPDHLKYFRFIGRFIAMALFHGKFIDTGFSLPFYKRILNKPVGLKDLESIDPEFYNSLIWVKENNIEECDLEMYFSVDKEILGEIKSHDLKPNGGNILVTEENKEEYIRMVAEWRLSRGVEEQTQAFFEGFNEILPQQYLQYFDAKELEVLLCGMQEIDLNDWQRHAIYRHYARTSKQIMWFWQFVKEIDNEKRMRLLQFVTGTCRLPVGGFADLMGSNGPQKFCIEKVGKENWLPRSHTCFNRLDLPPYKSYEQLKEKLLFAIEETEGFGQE
UniProt P61586: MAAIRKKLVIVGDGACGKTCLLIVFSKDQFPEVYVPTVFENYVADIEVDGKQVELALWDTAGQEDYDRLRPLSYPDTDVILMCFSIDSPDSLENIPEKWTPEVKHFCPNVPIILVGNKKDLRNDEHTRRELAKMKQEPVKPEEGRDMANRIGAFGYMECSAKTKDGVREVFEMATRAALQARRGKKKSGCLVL

Experiments:
[1] = target: C-terminally FLAG-tagged TRPV4 (transient receptor potential vanilloid 4), WT (human) (UniProt Q9HBA0); assay: co-IP; HEK293T cells cotransfected with TRPV4 (WT or mutant) and Myc-tagged E3 ligase; lysed 24 h post-transfection in RIPA buffer with protease/phosphatase inhibitors and PR-619; supernatant incubated 1 h at 4 °C with Dynabeads Protein G preconjugated with anti-FLAG M2 antibody; washed with 0.2% Tween-20 in PBS; Western blot
[2] = target: C-terminally FLAG-tagged TRPV4 (transient receptor potential vanilloid 4), WT (human) (UniProt Q9HBA0); assay: co-IP; co-IP of PACSIN1 or RhoA with WT and K>R mutant TRPV4 (Fig. S5, H-J); cells, antibody and conditions not stated for this experiment in the text shown
[3] = target: TRPV4 5K-IDR mutant (Lys 77, 101, 130, 136 and 147 to arginine) (human) (UniProt Q9HBA0); assay: as above

Row | binding [1] | binding [2] | binding [3] | Substance
1 | binds |  |  | N-terminally Myc-tagged ITCH C830A (catalytically inactive) (from UniProt Q96J02-2 1-862) (enzyme)
2 | binds |  |  | N-terminally Myc-tagged ITCH (from UniProt Q96J02-2 1-862) (enzyme)
3 |  | binds | binds | RhoA-Myc (from UniProt P61586 1-193)
